# In the supplement of paper PMC8728848:
# This is one part of the list.
# Legend:
# Experiment in all cases: glycan array binding signal (z-score within array); higher = stronger binding
# Conditions in all cases: glycan notation: IUPAC condensed, linker removed
# [1] = target: Fuc(a1-2)Gal
# Method in brief: (§1)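 Negative Z-scores can be read as non-binding. The Z-score is calculated within each array and then averaged across arrays of one protein sequence at different concentrations or buffers and across linkers. Arrays, 3228 in all, were curated from the Consortium for Functional Glycomics database and kept only where the protein sequence was available.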
# [2] = target: Fuc(a1-2)Gal(b1-3)GalNAc
# Method in brief: as §1
# [3] = target: Fuc(a1-2)Gal(b1-3)GalNAc(b1-3)Gal
# Method in brief: as §1
# [4] = target: Fuc(a1-2)Gal(b1-3)GalNAc(b1-3)Gal(a1-4)Gal(b1-4)Glc
# Method in brief: as §1
# [5] = target: Fuc(a1-2)Gal(b1-3)GalNAc(b1-3)Gal(b1-4)Glc
# Method in brief: as §1
# [6] = target: Fuc(a1-2)Gal(b1-3)GalNAc(b1-4)[Neu5Ac(a2-3)]Gal(b1-4)Glc
# Method in brief: as §1
# [7] = target: Fuc(a1-2)Gal(b1-3)[Fuc(a1-4)]GlcNAc
# Method in brief: as §1
# [8] = target: Fuc(a1-2)Gal(b1-4)Glc
# Method in brief: as §1
# [9] = target: Fuc(a1-2)Gal(b1-4)Glc6S
# Method in brief: as §1
# [10] = target: Fuc(a1-2)Gal(b1-4)GlcNAc
# Method in brief: as §1
# [11] = target: Fuc(a1-2)Gal(b1-4)GlcNAc(b1-3)Gal(b1-4)GlcNAc
# Method in brief: as §1
# [12] = target: Fuc(a1-2)Gal(b1-4)GlcNAc(b1-3)Gal(b1-4)GlcNAc(b1-3)Gal(b1-4)GlcNAc
# Method in brief: as §1
# [13] = target: Fuc(a1-2)Gal(b1-4)GlcNAc6S
# Method in brief: as §1
# [14] = target: Fuc(a1-2)Gal(b1-4)[Fuc(a1-3)]GalNAc(b1-3)Gal(b1-4)[Fuc(a1-3)]GlcNAc
# Method in brief: as §1
# [15] = target: Fuc(a1-2)Gal(b1-4)[Fuc(a1-3)]GalNAc(b1-3)Gal(b1-4)[Fuc(a1-3)]GlcNAc(b1-3)Gal(b1-4)[Fuc(a1-3)]GalNAc
# Method in brief: as §1
# [16] = target: Fuc(a1-2)Gal(b1-4)[Fuc(a1-3)]GlcNAc
# Method in brief: as §1
# [17] = target: Fuc(a1-2)Gal6S(b1-4)Glc
# Method in brief: as §1
# [18] = target: Fuc(a1-2)Gal6S(b1-4)Glc6S
# Method in brief: as §1
# [19] = target: Fuc(a1-2)Gal6S(b1-4)GlcNAc
# Method in brief: as §1
# [20] = target: Fuc(a1-2)GlcNAc
# Method in brief: as §1
# [21] = target: Fuc(a1-2)[Gal(a1-3)]Gal
# Method in brief: as §1
# [22] = target: Fuc(a1-2)[Gal(a1-3)]Gal(b1-3)GlcNAc
# Method in brief: as §1
# [23] = target: Fuc(a1-2)[Gal(a1-3)]Gal(b1-4)Glc
# Method in brief: as §1
# [24] = target: Fuc(a1-2)[Gal(a1-3)]Gal(b1-4)GlcNAc
# Method in brief: as §1
# [25] = target: Fuc(a1-2)[Gal(a1-3)]Gal(b1-4)[Fuc(a1-3)]GlcNAc
# Method in brief: as §1
# [26] = target: Fuc(a1-2)[Gal(a1-4)]Gal(b1-4)GalNAc
# Method in brief: as §1
# [27] = target: Fuc(a1-2)[GalNAc(a1-3)]Gal
# Method in brief: as §1
# [28] = target: Fuc(a1-2)[GalNAc(a1-3)]Gal(b1-3)GlcNAc
# Method in brief: as §1
# [29] = target: Fuc(a1-2)[GalNAc(a1-3)]Gal(b1-4)Glc
# Method in brief: as §1
# [30] = target: Fuc(a1-2)[GalNAc(a1-3)]Gal(b1-4)GlcNAc
# Method in brief: as §1
# [31] = target: Fuc(a1-2)[GalNAc(a1-3)]Gal(b1-4)[Fuc(a1-3)]GlcNAc
# Method in brief: as §1
# [32] = target: Fuc(a1-2)[GalNAc(a1-4)]Gal(b1-4)GlcNAc
# Method in brief: as §1
# [33] = target: Fuc(a1-3)GlcNAc
# Method in brief: as §1
# [34] = target: Fuc(a1-3)[Gal(b1-4)]Glc6S
# Method in brief: as §1
# [35] = target: Fuc(a1-3)[Gal(b1-4)]GlcNAc
# Method in brief: as §1
# [36] = target: Fuc(a1-3)[Gal(b1-4)]GlcNAc(b1-3)Gal(b1-3)[Fuc(a1-4)]GlcNAc
# Method in brief: as §1
# [37] = target: Fuc(a1-3)[Gal(b1-4)]GlcNAc(b1-4)Gal(b1-4)[Fuc(a1-3)]GlcNAc
# Method in brief: as §1
# [38] = target: Fuc(a1-3)[Gal(b1-4)]GlcNAc(b1-4)Gal(b1-4)[Fuc(a1-3)]GlcNAc(b1-4)Gal(b1-4)[Fuc(a1-3)]GlcNAc
# Method in brief: as §1
# [39] = target: Fuc(a1-3)[Gal(b1-4)]GlcNAc6S
# Method in brief: as §1
# [40] = target: Fuc(a1-3)[Gal3S(b1-4)]Glc
# Method in brief: as §1
# [41] = target: Fuc(a1-3)[Gal3S(b1-4)]Glc6S
# Method in brief: as §1
# [42] = target: Fuc(a1-3)[Gal3S(b1-4)]GlcNAc
# Method in brief: as §1
# [43] = target: Fuc(a1-3)[Gal3S(b1-4)]GlcNAc6S
# Method in brief: as §1
# [44] = target: Fuc(a1-3)[GalNAc(b1-4)]Gal(b1-4)GlcNAc
# Method in brief: as §1
# [45] = target: Fuc(a1-4)GlcNAc
# Method in brief: as §1
binder,measurement,setting,value
"KCR (Mus musculus), P70194 (protein) MKEAELNRDMARYCTDNQCVSLQPQGLGPKSAALMAPRTLRHVQVILALMVVTVIFSLLALFVVASQPWRPEWNKEPPSLLLRGSNNSGHDNHSQFVRETEMQVAIQRLRDYEENSSSCHKEVQILKYQMDNVSSLVQLLGSHLEDVNADILQTKDVLKESGALALETQALRSSLEVASADIHSLRGDLEKANAMTSQTRGLLKSSTENTSAELHVLGRGLEEAQSEIQALRGSLQSANDLSSQTQGFLQHSMDNISAQIQTVRDGMERAGEKMNSLKKELETLTAQTQKANGHLEQTDAQIQGLKAELKSTSSLNSRIEVVNGQMKDASRELQTLRRDLSDVSALKSNVQMLQSNLQRAKTEMQTLKADLQATKALTAKIQGEQNRLGALQEAVAAQKQEQKTQNQVLQLIAQNWKYFNGNFYYFSRDKKPWREAEKFCTSQGAHLASVTSQEEQAFLVQTTSSGDHWIGLTDQGTEGIWRWVDGTPFNNAQSKGFWGKNQPDNWRHRNGEREDCVHVRQQWNDMACGSSYPWVCKKSTGWSAARVG",glycan array binding signal (z-score),[1],0.24
same,glycan array binding signal (z-score),[2],-0.72
same,glycan array binding signal (z-score),[3],-0.278
same,glycan array binding signal (z-score),[4],-0.651
same,glycan array binding signal (z-score),[5],-0.816
same,glycan array binding signal (z-score),[6],-0.426
same,glycan array binding signal (z-score),[7],-0.875
same,glycan array binding signal (z-score),[8],-0.826
same,glycan array binding signal (z-score),[9],0.282
same,glycan array binding signal (z-score),[10],-0.794
same,glycan array binding signal (z-score),[11],-0.635
same,glycan array binding signal (z-score),[12],-0.548
same,glycan array binding signal (z-score),[13],-0.001
same,glycan array binding signal (z-score),[14],-0.211
same,glycan array binding signal (z-score),[15],-0.558
same,glycan array binding signal (z-score),[16],-0.493
same,glycan array binding signal (z-score),[17],-0.232
same,glycan array binding signal (z-score),[18],1.85
same,glycan array binding signal (z-score),[19],0.367
same,glycan array binding signal (z-score),[20],-0.506
same,glycan array binding signal (z-score),[21],-0.369
same,glycan array binding signal (z-score),[22],-0.474
same,glycan array binding signal (z-score),[23],-0.262
same,glycan array binding signal (z-score),[24],-0.609
same,glycan array binding signal (z-score),[25],-0.295
same,glycan array binding signal (z-score),[26],-0.36
same,glycan array binding signal (z-score),[27],1.28
same,glycan array binding signal (z-score),[28],-0.414
same,glycan array binding signal (z-score),[29],-0.481
same,glycan array binding signal (z-score),[30],-0.663
same,glycan array binding signal (z-score),[31],-0.495
same,glycan array binding signal (z-score),[32],-0.077
same,glycan array binding signal (z-score),[33],-0.589
same,glycan array binding signal (z-score),[34],0.736
same,glycan array binding signal (z-score),[35],1.71
same,glycan array binding signal (z-score),[36],0.416
same,glycan array binding signal (z-score),[37],2.14
same,glycan array binding signal (z-score),[38],4.39
same,glycan array binding signal (z-score),[39],3.94
same,glycan array binding signal (z-score),[40],-0.41
same,glycan array binding signal (z-score),[41],0.437
same,glycan array binding signal (z-score),[42],-0.102
same,glycan array binding signal (z-score),[43],0.896
same,glycan array binding signal (z-score),[44],3.06
same,glycan array binding signal (z-score),[45],-0.434
